In experiment [1] the target is Human CRM1 (human) (UniProt O14980). Description: SEC; Superdex 200 Increase 3.2/300; 180 pmol CBC and 360 pmol PHAX construct, CRM1 and RanGTP mixed with 100 μM capped 14-nt RNA (or U1 snRNA), 1 mM Mg2+, 1 mM KCl, 100 μM GTP, 30 min on ice; fractions on SDS-PAGE; both purified.
Experiment [2] has as its target T1, Human nuclear cap-binding complex (CBC): CBP80ΔNLS with CBP20 (human) (UniProt Q09161+P52298).
T1 sequence 1: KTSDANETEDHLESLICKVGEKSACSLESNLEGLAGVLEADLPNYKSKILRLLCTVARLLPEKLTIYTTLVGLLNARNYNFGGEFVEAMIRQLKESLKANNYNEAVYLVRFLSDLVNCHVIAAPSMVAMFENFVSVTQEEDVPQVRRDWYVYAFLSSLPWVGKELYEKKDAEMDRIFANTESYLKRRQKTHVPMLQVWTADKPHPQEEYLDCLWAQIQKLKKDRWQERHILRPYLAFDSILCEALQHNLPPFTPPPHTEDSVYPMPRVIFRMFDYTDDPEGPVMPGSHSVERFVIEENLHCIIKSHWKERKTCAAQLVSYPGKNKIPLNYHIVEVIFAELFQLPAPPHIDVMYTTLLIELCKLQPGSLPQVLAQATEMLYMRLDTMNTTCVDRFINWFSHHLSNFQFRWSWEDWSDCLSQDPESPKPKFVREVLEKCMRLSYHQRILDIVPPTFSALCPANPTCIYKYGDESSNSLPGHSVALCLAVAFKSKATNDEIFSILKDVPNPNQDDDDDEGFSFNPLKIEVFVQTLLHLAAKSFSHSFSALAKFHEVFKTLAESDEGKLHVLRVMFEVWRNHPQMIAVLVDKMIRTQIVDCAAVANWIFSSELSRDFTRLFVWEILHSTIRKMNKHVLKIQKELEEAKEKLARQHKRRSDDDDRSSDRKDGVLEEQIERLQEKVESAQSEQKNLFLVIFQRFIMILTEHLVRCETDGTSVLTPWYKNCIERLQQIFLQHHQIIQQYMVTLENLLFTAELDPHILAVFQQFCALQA
T1 sequence 2: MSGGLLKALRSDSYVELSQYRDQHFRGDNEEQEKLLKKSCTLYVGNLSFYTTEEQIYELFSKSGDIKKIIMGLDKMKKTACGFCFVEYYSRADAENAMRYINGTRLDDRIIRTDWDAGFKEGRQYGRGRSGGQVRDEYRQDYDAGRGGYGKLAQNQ
The experiment is described as above.

Chains of the proteins cited; added tags and fusions are not shown. Lines headed by an entry give the natural chain unless they say otherwise; changes in a name come on top. A line that says so, or that is headed by a name, gives the form on record, which may keep a tag or linker.
UniProt O14980: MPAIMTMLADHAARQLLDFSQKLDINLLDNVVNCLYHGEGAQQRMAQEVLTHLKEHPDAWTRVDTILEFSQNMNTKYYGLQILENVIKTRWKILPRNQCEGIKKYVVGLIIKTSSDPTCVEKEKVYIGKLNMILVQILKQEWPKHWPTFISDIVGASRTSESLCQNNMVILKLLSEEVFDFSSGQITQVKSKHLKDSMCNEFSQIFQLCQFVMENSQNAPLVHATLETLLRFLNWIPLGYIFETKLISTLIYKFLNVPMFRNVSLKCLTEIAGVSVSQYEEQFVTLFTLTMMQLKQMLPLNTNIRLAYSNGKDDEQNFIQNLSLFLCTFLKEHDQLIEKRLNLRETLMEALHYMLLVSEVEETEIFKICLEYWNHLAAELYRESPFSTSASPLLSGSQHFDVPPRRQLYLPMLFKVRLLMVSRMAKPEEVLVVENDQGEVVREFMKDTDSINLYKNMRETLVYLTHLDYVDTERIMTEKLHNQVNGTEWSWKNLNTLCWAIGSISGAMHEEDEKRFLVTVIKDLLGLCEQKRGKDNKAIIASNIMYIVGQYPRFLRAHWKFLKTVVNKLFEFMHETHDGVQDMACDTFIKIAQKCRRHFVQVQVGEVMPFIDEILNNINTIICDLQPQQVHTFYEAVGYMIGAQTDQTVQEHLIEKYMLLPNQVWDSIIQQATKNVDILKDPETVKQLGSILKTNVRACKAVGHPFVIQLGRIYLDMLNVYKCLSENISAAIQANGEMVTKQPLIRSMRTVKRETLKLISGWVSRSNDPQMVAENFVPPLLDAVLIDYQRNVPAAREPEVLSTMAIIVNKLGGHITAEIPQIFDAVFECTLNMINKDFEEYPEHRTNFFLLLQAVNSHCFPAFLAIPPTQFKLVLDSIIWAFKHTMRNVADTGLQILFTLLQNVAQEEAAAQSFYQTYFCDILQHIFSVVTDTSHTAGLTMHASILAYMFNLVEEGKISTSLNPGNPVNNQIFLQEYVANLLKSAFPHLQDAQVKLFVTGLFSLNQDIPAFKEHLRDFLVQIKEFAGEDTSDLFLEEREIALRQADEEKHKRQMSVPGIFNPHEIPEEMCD
MBP-PHAX103–196 R147E, Y152E, Y154E (Q9H814, form named): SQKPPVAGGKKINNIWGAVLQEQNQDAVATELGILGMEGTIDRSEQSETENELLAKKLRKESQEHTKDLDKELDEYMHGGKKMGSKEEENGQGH
MBP-PHAX103–196 W118E (Q9H814, form named): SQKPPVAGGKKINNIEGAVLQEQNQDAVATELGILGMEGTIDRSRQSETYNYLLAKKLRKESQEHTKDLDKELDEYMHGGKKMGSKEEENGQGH
MBP-PHAX103–196 Y154A (Q9H814, form named): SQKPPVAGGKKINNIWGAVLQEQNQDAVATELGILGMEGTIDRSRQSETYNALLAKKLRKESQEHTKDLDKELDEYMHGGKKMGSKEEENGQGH

Results are given in words; binding and its absence hold for the method and conditions named.

For the substance “MBP-PHAX103–196 R147E, Y152E, Y154E (from UniProt Q9H814 103-196) (domain or fragment)”, the binding entry in experiment [1] is “no binding”.

On to “MBP-PHAX103–196 W118E (from UniProt Q9H814 103-196) (domain or fragment)”, for which the binding entry in experiment [1] and in experiment [2] was “no binding” in each case.

“MBP-PHAX103–196 Y154A (from UniProt Q9H814 103-196) (domain or fragment)”: the binding entry in experiment [1] was “no binding”.

The record behind these values is publication PMC12350170, “Structural basis for the synergistic assembly of the snRNA export complex” (Nature Structural & Molecular Biology, 2025).
